Reference: publication PMC5940416
No constants are given. Whether binding was seen depends on the method and setting. In cells and extracts the contact can be indirect. Some entries that bind do so weakly or less than the wild type. For part of these data: Sequences can lack the tags named with a protein.

Sequences of proteins named here, by UniProt entry; tags and fusion partners are left off.
UniProt O95373: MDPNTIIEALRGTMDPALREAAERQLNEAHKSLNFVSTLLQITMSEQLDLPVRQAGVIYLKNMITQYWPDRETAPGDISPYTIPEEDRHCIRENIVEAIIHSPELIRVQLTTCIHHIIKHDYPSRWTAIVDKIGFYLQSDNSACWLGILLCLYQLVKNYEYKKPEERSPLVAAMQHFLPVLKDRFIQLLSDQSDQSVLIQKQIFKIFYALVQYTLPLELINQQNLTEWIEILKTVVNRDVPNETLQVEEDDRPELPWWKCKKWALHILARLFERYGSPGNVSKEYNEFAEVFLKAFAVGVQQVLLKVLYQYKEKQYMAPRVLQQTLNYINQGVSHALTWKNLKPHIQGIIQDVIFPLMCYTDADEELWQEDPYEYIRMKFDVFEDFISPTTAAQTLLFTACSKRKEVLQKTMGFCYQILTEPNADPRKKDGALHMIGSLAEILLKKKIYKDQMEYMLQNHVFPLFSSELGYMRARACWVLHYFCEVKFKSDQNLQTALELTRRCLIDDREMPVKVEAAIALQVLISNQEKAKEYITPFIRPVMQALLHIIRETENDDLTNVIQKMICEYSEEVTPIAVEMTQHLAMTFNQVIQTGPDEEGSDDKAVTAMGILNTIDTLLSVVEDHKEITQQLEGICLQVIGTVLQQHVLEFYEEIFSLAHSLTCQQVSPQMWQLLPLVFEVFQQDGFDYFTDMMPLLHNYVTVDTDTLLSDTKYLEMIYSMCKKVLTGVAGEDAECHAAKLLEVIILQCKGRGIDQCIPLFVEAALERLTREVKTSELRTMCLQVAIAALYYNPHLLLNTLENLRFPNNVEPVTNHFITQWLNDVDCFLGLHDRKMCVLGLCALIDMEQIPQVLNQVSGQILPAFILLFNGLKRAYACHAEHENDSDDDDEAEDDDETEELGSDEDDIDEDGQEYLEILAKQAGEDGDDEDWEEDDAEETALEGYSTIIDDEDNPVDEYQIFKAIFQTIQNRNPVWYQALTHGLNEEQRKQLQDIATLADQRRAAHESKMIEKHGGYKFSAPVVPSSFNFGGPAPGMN

B1: MTBP overexpressed from a lentiviral vector encoding MTBP cDNA (protein, UniProt Q96DY7 1-904)
chain: MDRYLLLVIWGEGKFPSAASREAEHGPEVSSGEGTENQPDFTAANVYHLLKRSISASINPEDSTFPACSVGGIPGSKKWFFAVQAIYGFYQFCSSDWQEIHFDTEKDKIEDVLQTNIEECLGAVECFEEEDSNSRESLSLADLYEEAAENLHQLSDKLPAPGRAMVDIILLLSDKDPPKLKDYLPTVGALKHLREWYSAKITIAGNHCEINCQKIAEYLSANVVSLEDLRNVIDSKELWRGKIQIWERKFGFEISFPEFCLKGVTLKNFSTSNLNTDFLAKKIIPSKDKNILPKVFHYYGPALEFVQMIKLSDLPSCYMSDIEFELGLTNSTKQNSVLLLEQISSLCSKVGALFVLPCTISNILIPPPNQLSSRKWKEYIAKKPKTISVPDVEVKGECSSYYLLLQGNGNRRCKATLIHSANQINGSFALNLIHGKMKTKTEEAKLSFPFDLLSLPHFSGEQIVQREKQLANVQVLALEECLKRRKLAKQPETVSVAELKSLLVLTRKHFLDYFDAVIPKMILRKMDKIKTFNILNDFSPVEPNSSSLMETNPLEWPERHVLQNLETFEKTKQKMRTGSLPHSSEQLLGHKEGPRDSITLLDAKELLKYFTSDGLPIGDLQPLPIQKGEKTFVLTPELSPGKLQVLPFEKASVCHYHGIEYCLDDRKALERDGGFSELQSRLIRYETQTTCTRESFPVPTVLSPLPSPVVSSDPGSVPDGEVLQNELRTEVSRLKRRSKDLNCLYPRKRLVKSESSESLLSQTTGNSNHYHHHVTSRKPQTERSLPVTCPLVPIPSCETPKLATKTSSGQKSMHESKTSRQIKESRSQKHTRILKEVVTETLKKHSITETHECFTACSQRLFEISKFYLKDLKTSRGLFEEMKKTANNNAVQVIDWVLEKTSKK
B2: FLAG-tagged full-length MTBP (protein, UniProt Q96DY7 1-904)
chain: MDRYLLLVIWGEGKFPSAASREAEHGPEVSSGEGTENQPDFTAANVYHLLKRSISASINPEDSTFPACSVGGIPGSKKWFFAVQAIYGFYQFCSSDWQEIHFDTEKDKIEDVLQTNIEECLGAVECFEEEDSNSRESLSLADLYEEAAENLHQLSDKLPAPGRAMVDIILLLSDKDPPKLKDYLPTVGALKHLREWYSAKITIAGNHCEINCQKIAEYLSANVVSLEDLRNVIDSKELWRGKIQIWERKFGFEISFPEFCLKGVTLKNFSTSNLNTDFLAKKIIPSKDKNILPKVFHYYGPALEFVQMIKLSDLPSCYMSDIEFELGLTNSTKQNSVLLLEQISSLCSKVGALFVLPCTISNILIPPPNQLSSRKWKEYIAKKPKTISVPDVEVKGECSSYYLLLQGNGNRRCKATLIHSANQINGSFALNLIHGKMKTKTEEAKLSFPFDLLSLPHFSGEQIVQREKQLANVQVLALEECLKRRKLAKQPETVSVAELKSLLVLTRKHFLDYFDAVIPKMILRKMDKIKTFNILNDFSPVEPNSSSLMETNPLEWPERHVLQNLETFEKTKQKMRTGSLPHSSEQLLGHKEGPRDSITLLDAKELLKYFTSDGLPIGDLQPLPIQKGEKTFVLTPELSPGKLQVLPFEKASVCHYHGIEYCLDDRKALERDGGFSELQSRLIRYETQTTCTRESFPVPTVLSPLPSPVVSSDPGSVPDGEVLQNELRTEVSRLKRRSKDLNCLYPRKRLVKSESSESLLSQTTGNSNHYHHHVTSRKPQTERSLPVTCPLVPIPSCETPKLATKTSSGQKSMHESKTSRQIKESRSQKHTRILKEVVTETLKKHSITETHECFTACSQRLFEISKFYLKDLKTSRGLFEEMKKTANNNAVQVIDWVLEKTSKK
B3: ΔC-MTBP, C-terminal region deleted mutant of MTBP, FLAG-tagged (domain or fragment, UniProt Q96DY7 1-759)
chain: MDRYLLLVIWGEGKFPSAASREAEHGPEVSSGEGTENQPDFTAANVYHLLKRSISASINPEDSTFPACSVGGIPGSKKWFFAVQAIYGFYQFCSSDWQEIHFDTEKDKIEDVLQTNIEECLGAVECFEEEDSNSRESLSLADLYEEAAENLHQLSDKLPAPGRAMVDIILLLSDKDPPKLKDYLPTVGALKHLREWYSAKITIAGNHCEINCQKIAEYLSANVVSLEDLRNVIDSKELWRGKIQIWERKFGFEISFPEFCLKGVTLKNFSTSNLNTDFLAKKIIPSKDKNILPKVFHYYGPALEFVQMIKLSDLPSCYMSDIEFELGLTNSTKQNSVLLLEQISSLCSKVGALFVLPCTISNILIPPPNQLSSRKWKEYIAKKPKTISVPDVEVKGECSSYYLLLQGNGNRRCKATLIHSANQINGSFALNLIHGKMKTKTEEAKLSFPFDLLSLPHFSGEQIVQREKQLANVQVLALEECLKRRKLAKQPETVSVAELKSLLVLTRKHFLDYFDAVIPKMILRKMDKIKTFNILNDFSPVEPNSSSLMETNPLEWPERHVLQNLETFEKTKQKMRTGSLPHSSEQLLGHKEGPRDSITLLDAKELLKYFTSDGLPIGDLQPLPIQKGEKTFVLTPELSPGKLQVLPFEKASVCHYHGIEYCLDDRKALERDGGFSELQSRLIRYETQTTCTRESFPVPTVLSPLPSPVVSSDPGSVPDGEVLQNELRTEVSRLKRRSKDLNCLYPRKRLVKSESSESL

Columns and labels:
[1] = target: importin-7/RanBP7 (IPO7) (human (endogenous in PLC/PRF/5 and Huh7)) (UniProt O95373); test: co-IP; endogenous proteins; ~200 ug whole cell lysate (IP lysis buffer, protease inhibitors) of PLC/PRF/5 and Huh7 cells, for p-Erk and IPO7 from cells infected with empty or MTBP lentiviral vector; protein-specific antibodies overnight at 4 C, protein A/G plus-agarose; western blotting; isotype controls
[2] = target: importin-7/RanBP7 (IPO7) (human (endogenous in PLC/PRF/5 and Huh7)) (UniProt O95373); test: co-IP; FLAG-tagged MTBP constructs overexpressed in Huh7 (MTBP^NLS also in PLC/PRF/5) against endogenous IPO7; ~200 ug lysate; FLAG- and IPO7-specific antibodies (anti-FLAG M2 affinity gel for MTBP^NLS); western blotting; isotype controls

Binder	binding [1]	binding [2]
B1	binds	–
B2	–	binds
B3	–	no binding
